Reference: publication PMC6591252
Results are given in words; binding and its absence hold for the method and conditions named. In cells and extracts the contact can be indirect. Some results given as binding are weak or reduced against the parent protein; the word gives no strength.

The chains behind the UniProt entries cited, without tags or fusion partners.
UniProt Q99755: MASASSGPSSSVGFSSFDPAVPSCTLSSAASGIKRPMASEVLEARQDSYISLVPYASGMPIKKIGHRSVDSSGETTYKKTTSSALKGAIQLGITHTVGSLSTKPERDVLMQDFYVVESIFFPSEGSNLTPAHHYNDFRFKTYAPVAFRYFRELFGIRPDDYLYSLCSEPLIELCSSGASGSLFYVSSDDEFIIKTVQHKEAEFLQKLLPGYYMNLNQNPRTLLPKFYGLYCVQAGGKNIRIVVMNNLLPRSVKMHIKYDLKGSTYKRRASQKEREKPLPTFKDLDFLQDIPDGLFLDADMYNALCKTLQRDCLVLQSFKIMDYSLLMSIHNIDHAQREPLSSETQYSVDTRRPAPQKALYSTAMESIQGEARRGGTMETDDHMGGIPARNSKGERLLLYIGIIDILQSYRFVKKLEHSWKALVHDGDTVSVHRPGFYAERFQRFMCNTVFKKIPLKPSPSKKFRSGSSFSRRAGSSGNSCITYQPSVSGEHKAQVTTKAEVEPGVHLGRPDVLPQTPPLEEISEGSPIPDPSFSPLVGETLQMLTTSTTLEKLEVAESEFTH
UniProt P27986: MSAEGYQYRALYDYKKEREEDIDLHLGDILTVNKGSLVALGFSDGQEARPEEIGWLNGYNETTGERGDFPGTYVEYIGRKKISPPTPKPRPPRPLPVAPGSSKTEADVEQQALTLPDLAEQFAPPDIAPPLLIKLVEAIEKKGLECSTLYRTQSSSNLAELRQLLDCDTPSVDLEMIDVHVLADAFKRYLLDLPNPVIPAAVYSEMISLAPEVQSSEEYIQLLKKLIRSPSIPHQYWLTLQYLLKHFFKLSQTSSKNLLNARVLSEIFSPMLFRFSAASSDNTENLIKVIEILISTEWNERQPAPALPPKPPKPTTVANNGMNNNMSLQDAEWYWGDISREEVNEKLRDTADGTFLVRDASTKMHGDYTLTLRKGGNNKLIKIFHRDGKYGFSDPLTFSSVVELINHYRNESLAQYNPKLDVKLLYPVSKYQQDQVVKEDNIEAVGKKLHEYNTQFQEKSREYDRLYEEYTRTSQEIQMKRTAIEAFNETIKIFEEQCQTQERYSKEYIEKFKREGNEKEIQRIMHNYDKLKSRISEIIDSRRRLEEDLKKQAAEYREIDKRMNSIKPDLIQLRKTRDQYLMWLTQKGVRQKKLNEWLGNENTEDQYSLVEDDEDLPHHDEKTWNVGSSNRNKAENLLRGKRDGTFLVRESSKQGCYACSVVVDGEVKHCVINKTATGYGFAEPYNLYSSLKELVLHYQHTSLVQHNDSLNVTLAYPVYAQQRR

Experiments:
[1] = target: Myc-tagged wild-type IQGAP1 (IQ motif-containing GTPase-activating protein 1) (UniProt P46940); assay: co-IP; Myc-tagged IQGAP1 WT or ΔIQ3 transfected in HEK293FT (Fig. 3a, Supplementary Fig. 6a) or UM-SCC47 (Fig. 4d) cells, starved 24 h, with or without 10 ng/ml EGF 15 min; lysis in 25 mM Tris-HCl pH 7.4, 150 mM NaCl, 1 mM EDTA, 1% NP-40, 5% glycerol; anti-c-Myc agarose 2 h at 4 °C; endogenous partners by blot
[2] = target: endogenous IQGAP1 (human (endogenous in MDA-MB-231 and UM-SCC47)) (UniProt P46940); assay: proximity ligation; endogenous IQGAP1 and EGFR in MDA-MB-231 cells, starved 24 h, with or without 10 ng/ml EGF 15 min, fixed
[3] = target: Myc-tagged wild-type IQGAP1 (IQ motif-containing GTPase-activating protein 1) (UniProt P46940); assay: proximity ligation; UM-SCC47/HEK293FT cells transfected with Myc-tagged IQGAP1 WT or ΔIQ3, starved 24 h, with or without 10 ng/ml EGF 15 min, fixed in 4% PFA; Duolink in situ kit; Myc tag against the endogenous partner
[4] = target: endogenous IQGAP1 (human (endogenous in MDA-MB-231 and UM-SCC47)) (UniProt P46940); assay: proximity ligation; endogenous IQGAP1 with EGFR, p85α or PIPKIα in UM-SCC47 cells starved 24 h, with or without 30 μM IQ3 peptide for 3 h, then 10 ng/ml EGF 15 min, fixed
[5] = target: endogenous IQGAP1 (human (endogenous in MDA-MB-231 and UM-SCC47)) (UniProt P46940); assay: co-IP; endogenous proteins, MDA-MB-231 whole cell lysates, starved 24 h, with or without 10 ng/ml EGF 15 min; anti-IQGAP1 antibody on Protein A/G agarose beads
[6] = target: endogenous IQGAP1 (human (endogenous in MDA-MB-231 and UM-SCC47)) (UniProt P46940); assay: proximity ligation; as a5, the sample treated with 30 μM IQ3 peptide for 3 h before 10 ng/ml EGF 15 min
[7] = target: PIPKIα (PIP5K1A) (human (endogenous in HEK293FT and UM-SCC47)) (UniProt Q99755); assay: proximity ligation; synthetic IQ3 peptide (30 μM, 3 h) added to starved UM-SCC47 cells, then 10 ng/ml EGF 15 min; displacement read as loss of the PLA signal of endogenous IQGAP1 with PIPKIα or p85α; only the binder purified
[8] = target: p85α regulatory subunit of PI3K (human (endogenous in HEK293FT and UM-SCC47)) (UniProt P27986); assay: as above
[9] = target: Myc-tagged wild-type IQGAP1 (IQ motif-containing GTPase-activating protein 1) (UniProt P46940); assay: co-IP; Myc-tagged IQGAP1 WT or ΔIQ3 transfected in HEK293FT (Fig. 3a, Supplementary Fig. 6a) or UM-SCC47 (Fig. 4d) cells, starved 24 h, with or without 10 ng/ml EGF 15 min; lysis in 25 mM Tris-HCl pH 7.4, 150 mM NaCl, 1 mM EDTA, 1% NP-40, 5% glycerol; anti-c-Myc agarose 2 h at 4 °C; endogenous partners by blot; remark: listed apart in the source

Molecule: Epidermal growth factor receptor (EGFR) (from UniProt P00533 25-1210)
- binding [1]: binds
- binding [2]: binds
- binding [3]: binds
- binding [4]: binds
- binding [5]: binds

Molecule: PIPKIα (PIP5K1A) (from UniProt Q99755 1-562) (enzyme)
- binding [1]: binds
- binding [3]: binds
- binding [4]: binds
- binding [6]: no binding (condition: with 30 μM IQ3 peptide)

Molecule: p85α regulatory subunit of PI3K (from UniProt P27986 1-724)
- binding [1]: binds
- binding [3]: binds
- binding [4]: binds

Molecule: RRRRRRRREQKLISEEDLEVVKIQSLARMHQARKRYRD (the eight N-terminal arginines are D-residues ((dR) x 8)) [membrane penetrating IQ3 peptide]
- binding [7]: binds
- binding [8]: binds

B1: PDK1 (enzyme, UniProt O15530 1-556)
chain: MARTTSQLYDAVPIQSSVVLCSCPSPSMVRTQTESSTPPGIPGGSRQGPAMDGTAAEPRPGAGSLQHAQPPPQPRKKRPEDFKFGKILGEGSFSTVVLARELATSREYAIKILEKRHIIKENKVPYVTRERDVMSRLDHPFFVKLYFTFQDDEKLYFGLSYAKNGELLKYIRKIGSFDETCTRFYTAEIVSALEYLHGKGIIHRDLKPENILLNEDMHIQITDFGTAKVLSPESKQARANSFVGTAQYVSPELLTEKSACKSSDLWALGCIIYQLVAGLPPFRAGNEYLIFQKIIKLEYDFPEKFFPKARDLVEKLLVLDATKRLGCEEMEGYGPLKAHPFFESVTWENLHQQTPPKLTAYLPAMSEDDEDCYGNYDNLLSQFGCMQVSSSSSSHSLSASDTGLPQRSGSNIEQYIHDLDSNSFELDLQFSEDEKRLLLEKQAGGNPWHQFVENNLILKMGPVDKRKGLFARRRQLLLTEGPHLYYVDPVNKVLKGEIPWSQELRPEAKNFKTFFVHTPNRTYYLMDPSGNAHKWCRKIQEVWRQRYQSHPDAAVQ
- binding [9]: binds
